Test results: patent US8703165B2, “Spiro fused 1-amino-piperdine pyrrolidine dione derivatives with pesticidal activity” (Syngenta Crop Protection, Inc., priority 2009, dated 2014)
Some results were stated once for a whole list of compounds, not compound by compound.

Columns and labels:
Assay type in all cases: in vivo
[1] = test system: Aphis craccivora (cowpea aphid); assay: Example B7: translaminar activity against Aphis craccivora; conditions: 400 ppm; upper side of French bean leaves painted; mortality after 5 days
[2] = test system: Nilaparvata lugens (brown rice planthopper); assay: Example B6: Nilaparvata lugens, larvicide, feeding/contact; conditions: 400 ppm; sprayed rice seedlings, N3 nymphs; checked 6-12 days after treatment
[3] = test system: Thrips tabaci (onion thrips); assay: Example B3: Thrips tabaci, mixed population, feeding/residual contact activity, preventive; conditions: 400 ppm; sprayed sunflower leaf discs; mortality after 6 days
[4] = test system: Tetranychus urticae (two-spotted spider mite); assay: Example B4: Tetranychus urticae, mixed population, feeding/residual contact activity, preventive; conditions: 400 ppm; sprayed bean leaf discs; egg, larval and adult mortality after 8 days
[5] = test system: Myzus persicae (green peach aphid); assay: Example B2: Myzus persicae, mixed population, systemic/feeding activity, curative (pea seedling roots); conditions: 400 ppm; roots of infested pea seedlings in test solution; mortality after 6 days
[6] = test system: Myzus persicae (green peach aphid); assay: Example B1: Myzus persicae, mixed population, feeding/residual contact activity, preventive (sunflower leaf discs); conditions: 400 ppm; sprayed sunflower leaf discs; mortality after 6 days
[7] = test system: Myzus persicae (green peach aphid); assay: Example B9: Myzus persicae, mixed population, feeding/residual contact activity on pepper or cabbage plants; conditions: 200 ppm, mortality 6 days after treatment
[8] = test system: Myzus persicae (green peach aphid); assay: Example B8: drench activity against Myzus persicae; conditions: 25 ppm; drench application, pea seedlings in field soil; mortality 7 days after infestation
[9] = test system: Aphis craccivora (cowpea aphid); assay: Example B10: Aphis craccivora, mixed population, systemic/feeding (pea seedling roots); conditions: 25 ppm; roots of infested pea seedlings in test solution; mortality after 6 days
[10] = test system: Bemisia tabaci (tobacco white fly); assay: Example B5: Bemisia tabaci, larvicide, contact/feeding; conditions: 200 ppm; bean plants with N-2 nymphs sprayed; emerged adults vs non treated after three weeks

Cc1cc(C)c(C2C(=O)NC3(CCN(N(C)C)CC3)C2=O)c(C)c1 (centres unmarked) [A2, 8-Dimethylamino-3-(2,4,6-trimethyl-phenyl)-1,8-diaza-spiro[4.5]decane-2,4-dione] was tested, and the activity [1] was “over 80%”, the activity [2] was “over 80%” and the activity [3] was “over 80%”. For the same molecule, the activity [4] was “over 80%”.

CCOC(=O)OC1=C(c2c(C)cc(C)cc2C)C(=O)N(OCCOC)C12CCN(N(C)C)CC2 [A10] was tested, and the activity [5] was “over 80%” and the activity [6] was “over 80%”.

With CCOC(=O)OC1=C(c2c(C)cc(C)cc2C)C(=O)N(C)C12CCN(N(C)C)CC2 [A4, Carbonic acid 8-dimethylamino-1-methyl-2-oxo-3-(2,4,6-trimethyl-phenyl)-1,8-diaza-spiro[4.5]dec-3-en-4-yl ester ethyl ester] the activity [1] was “over 80%”, the activity [2] was “over 80%” and the “activity against Myzus persicae” value ([7]; cabbage [C] plants sprayed) was ≥ 80%. The “activity against Myzus persicae” value ([7]; pepper [P] plants sprayed) was ≥ 80% and the activity [6] was “over 80%”.

In the case of CCOC(=O)OC1=C(c2c(C)cc(C)cc2C)C(=O)NC12CCN(N(C)C)CC2 [A1, Carbonic acid 8-dimethylamino-2-oxo-3-(2,4,6-trimethylphenyl)-1,8-diaza-spiro[4.5]dec-3-en-4-yl ester ethyl ester], the activity [8] is reported as “over 80%”, the activity [5] is reported as “over 80%” and the activity [9] is reported as “over 80%”. For the same molecule, the activity [1] was “over 80%”, the activity [2] was “over 80%” and the activity [10] was “over 80%”. The “activity against Myzus persicae” value ([7]; pepper [P] plants sprayed) was ≥ 80%.

In the case of CCOC(=O)OC1=C(c2c(C)cc(C)cc2C)C(=O)NC12CCN(N1CCOCC1)CC2 [B2], the activity [5] is reported as “over 80%” and the activity [4] is reported as “over 80%”.

Cc1cc(C)c(C2=C(O)C3(CCN(N4CCOCC4)CC3)NC2=O)c(C)c1 [B1] was tested, and the activity [5] was “over 80%”, the activity [4] was “over 80%” and the “activity against Myzus persicae” value ([7]; cabbage [C] plants sprayed) was ≥ 80%. The activity [6] was “over 80%”.

With Cc1cc(Cl)cc(C)c1C1=C(O)C2(CCN(N3CCOCC3)CC2)NC1=O [B3] the activity [4] was “over 80%”.

For CON1C(=O)C(c2c(C)cc(C)cc2C)=C(O)C12CCN(N(C)C)CC2 [A6], the “activity against Myzus persicae” value ([7]; pepper [P] plants sprayed) was ≥ 80% and the activity [6] was “over 80%”.

Cc1cc(Cl)cc(C)c1C1=C(O)C2(CCN(N3CCOCC3)CC2)N(C)C1=O [B7] was tested, and the activity [4] was “over 80%”, the “activity against Myzus persicae” value ([7]; cabbage [C] plants sprayed) was ≥ 80% and the activity [6] was “over 80%”.

With CCOC(=O)OC1=C(c2c(C)cc(Cl)cc2C)C(=O)N(C)C12CCN(N1CCOCC1)CC2 [B8] the activity [4] was “over 80%” and the “activity against Myzus persicae” value ([7]; cabbage [C] plants sprayed) was ≥ 80%.

With COCON1C(=O)C(c2c(C)cc(Cl)cc2C)=C(O)C12CCN(N(C)C)CC2 [A16] the activity [5] was “over 80%”, the “activity against Myzus persicae” value ([7]; cabbage [C] plants sprayed) was ≥ 80% and the activity [6] was “over 80%”.

With CCOC(=O)OC1=C(c2c(C)cc(Cl)cc2C)C(=O)N(OCOC)C12CCN(N(C)C)CC2 [A17] the activity [5] was “over 80%” and the “activity against Myzus persicae” value ([7]; cabbage [C] plants sprayed) was ≥ 80%.

COCON1C(=O)C(c2c(C)cc(C)cc2C)=C(O)C12CCN(N(C)C)CC2 [A5] was tested, and the activity [5] was “over 80%”, the activity [4] was “over 80%” and the “activity against Myzus persicae” value ([7]; pepper [P] plants sprayed) was ≥ 80%. The activity [6] was “over 80%”.

With Cc1cc(C)c(C2C(=O)N(C)C3(CCN(N(C)C)CC3)C2=O)c(C)c1 (centres unmarked) [A3, 8-Dimethylamino-1-methyl-3-(2,4,6-trimethyl-phenyl)-1,8-diaza-spiro[4.5]decane-2,4-dione] the “activity against Myzus persicae” value ([7]; cabbage [C] plants sprayed) was ≥ 80%, the “activity against Myzus persicae” value ([7]; pepper [P] plants sprayed) was ≥ 80% and the activity [6] was “over 80%”.

Cc1cc(C)c(C2=C(O)C3(CCN(N4CCOCC4)CC3)N(C)C2=O)c(C)c1 [B5] was tested, and the activity [5] was “over 80%” and the “activity against Myzus persicae” value ([7]; cabbage [C] plants sprayed) was ≥ 80%.

CCOC(=O)OC1=C(c2c(C)cc(Cl)cc2C)C(=O)N(C)C12CCN(N(C)C)CC2 [A15] was tested, and the “activity against Myzus persicae” value ([7]; cabbage [C] plants sprayed) was ≥ 80%.

In the case of CCOC(=O)OC1=C(c2c(C)cc(C)cc2C)C(=O)N(OC)C12CCN(N(C)C)CC2 [A9], the “activity against Myzus persicae” value ([7]; pepper [P] plants sprayed) is reported as ≥ 80% and the activity [6] is reported as “over 80%”.

For CCOC(=O)OC1=C(c2c(C)cc(C)cc2C)C(=O)N(OCOC)C12CCN(N(C)C)CC2 [A8], the activity [8] was “over 80%”, the activity [5] was “over 80%” and the activity [9] was “over 80%”. The activity [1] was “over 80%”, the activity [2] was “over 80%” and the activity [3] was “over 80%”. For the same molecule, the activity [10] was “over 80%”, the activity [4] was “over 80%” and the activity [6] was “over 80%”.

COCCON1C(=O)C(c2c(C)cc(C)cc2C)C(=O)C12CCN(N(C)C)CC2 (centres unmarked) [A7, 8-Dimethylamino-1-(2-methoxy-ethoxy)-3-(2,4,6-trimethylphenyl)-1,8-diaza-spiro[4.5]decane-2,4-dione] was tested, and the activity [4] was “over 80%”, the “activity against Myzus persicae” value ([7]; pepper [P] plants sprayed) was ≥ 80% and the activity [6] was “over 80%”.

For CCOC(=O)OC1=C(c2c(C)cc(C)cc2C)C(=O)N(C)C12CCN(N1CCOCC1)CC2 [B6], the activity [5] was “over 80%”, the activity [4] was “over 80%” and the “activity against Myzus persicae” value ([7]; cabbage [C] plants sprayed) was ≥ 80%. The activity [6] was “over 80%”.
